This passage reports general growth inhibition and growth inhibition results from the supplement of paper PMC8326762, “A Small Molecule Inhibitor of Pex3–Pex19 Interaction Disrupts Glycosome Biogenesis and Causes Lethality in Trypanosoma brucei” (Frontiers in Cell and Developmental Biology, 2021).

The subject of test [1] is Saccharomyces cerevisiae HF7c pdr5Δ. The test is described as follows: general growth inhibition of yeast HF7c pdr5Δ in -Leu -Trp medium, relative to DMSO; higher = stronger general growth inhibition. The conditions noted are these: 100 µM; 24 h.
Test [2] deals with human PEX3-PEX19 interaction (yeast two-hybrid). In words: growth inhibition of yeast two-hybrid strain reporting HsPex3-HsPex19 interaction, relative to DMSO; higher = stronger inhibition of human Pex3-Pex19 interaction / growth. The conditions noted are these: 100 µM; 24 h; 3-aminotriazole 10 mM.
Test [3] concerns T. brucei Pex3-Pex19 interaction (yeast two-hybrid). The test is described as follows: growth inhibition of yeast two-hybrid strain reporting TbPex3-TbPex19 interaction, relative to DMSO; higher = stronger inhibition of T. brucei Pex3-Pex19 interaction / growth. Particulars: 100 µM; 24 h.

Counter-ions that a name gives are not always drawn. This is one part of the list. This is a noisy data set.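 Optical density at 600 nm measured yeast growth. Because the two-hybrid strains grew without histidine, growth required Pex3–Pex19 binding. Trypanosome selectivity meant a compound inhibited the trypanosome-pair strain's growth by more than 65% but the human-pair strain's by less than 65%.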

`S=C(S)OC1CC2CC1C1CCCC21` [D-609 potassium] gave a general growth inhibition in test [1] of 88.4%. Also, the values for the growth inhibition in test [2] and in test [3] were 78.3% and 78.2%, respectively.
The corresponding values for `CC(C)(C(=O)O)c1ccc(C(O)CCCN2CCC(C(O)(c3ccccc3)c3ccccc3)CC2)cc1` (stereo not given) [Fexofenadine hydrochloride] are 21.1%, 27.2% and 36.6%.
The corresponding values for `Cc1cc(Cn2cnc3c2C[C@@H](C(=O)O)N(C(=O)C(c2ccccc2)c2ccccc2)C3)ccc1N` are 40%, 44.2% and 63%.
Taken in the same sequence, the figures for `CCCCCC(O)CCCC(=O)O` (stereo not given) [5-hydroxydecanoic acid sodium] were 35.1%, 26.4% and 58.3%.
In turn, `CC(C)(C)NC(=O)[C@@H]1CN(Cc2cccnc2)CCN1C[C@@H](O)C[C@@H](Cc1ccccc1)C(=O)N[C@H]1c2ccccc2C[C@H]1O` [Indinavir sulfate salt hydrate] displayed a general growth inhibition in test [1] of 51.6%. The growth inhibition in test [2] worked out at 44.2%; in test [3], 56.1%.
Taken in the same sequence, the figures for `Cc1cc(Cl)ccc1OCCCC(=O)NO` [Droxinostat] were 5.79%, -0.556% and 22.2%.
In test [1], `CC(Cc1ccc(O)c(O)c1)(NN)C(=O)O` (stereo not drawn) [S-(-)-Carbidopa] gave a general growth inhibition of 26.6%. In addition, the growth inhibition in test [2] came out at 37.5%; in test [3], 53.5%.
`CN(C)CCC(c1ccc(Br)cc1)c1ccccn1` (racemic) [(±)-Brompheniramine maleate] displayed a general growth inhibition in test [1] of 26.2%. Besides, the growth inhibition in test [2] worked out at 30.8%; in test [3], 52.8%.
`NC12CC3CC(CC(C3)C1)C2` [Amantadine hydrochloride] showed a general growth inhibition in test [1] of 16.5%. In addition, the growth inhibition in test [2] came to 5%; in test [3], 33.9%.
The compound `NC(Cc1cccc(-c2ccccc2CP(=O)(O)O)c1)C(=O)O` (stereo not drawn) [Phenylbenzene-omega-phosphono-alpha-amino acid] yielded a general growth inhibition in test [1] of 51.3%. Further, the figures for the growth inhibition in test [2] and in test [3] were 31.8% and 59%, respectively.
Taken in the same sequence, the figures for `OC[C@H]1O[C@H]([S-])[C@H](O)[C@@H](O)[C@@H]1O.[Au+]` [Aurothioglucose] were 70%, 48.9% and 53.5%.
Taken in the same sequence, the figures for `COc1cc(Nc2c(C#N)cnc3cc(OCCCN4CCN(C)CC4)c(OC)cc23)c(Cl)cc1Cl` [Bosutinib] were 35.8%, 18.2% and 50%.
In test [1], `CN(C)CC/C=C1/c2ccccc2Sc2ccc(Cl)cc21` [Chlorprothixene hydrochloride] showed a general growth inhibition of 25.3%. Further, the growth inhibition in test [2] worked out at 29.1%; in test [3] it was 50.8%.
The corresponding values for `Cn1cnc([N+](=O)[O-])c1Sc1ncnc2[nH]cnc12` [Azathioprine] are 45.6%, 49.4% and 61.4%.
The compound `CCCC1O[C@@H]2C[C@H]3[C@@H]4CCC5=CC(=O)C=C[C@]5(C)[C@H]4[C@@H](O)C[C@]3(C)[C@]2(C(=O)CO)O1` (stereo not given in full) [Budesonide] gave a general growth inhibition in test [1] of 39.3%. The growth inhibition in test [2] stood at 36.9%; in test [3], 51.2%.
In test [1], `NNCCc1ccccc1` [Phenelzine sulfate] displayed a general growth inhibition of 50.5%. Besides, the growth inhibition in test [2] amounted to 44%; in test [3], 55%.
In test [1], `O=C(O)c1cc(=O)cc(C(=O)O)[nH]1` [Chelidamic acid] gave a general growth inhibition of 40.7%. In addition, the growth inhibition in test [2] came to 43%; in test [3], 57.1%.
`CCN(CC)CCOC(=O)c1ccc(N)cc1` [Procaine hydrochloride]: the general growth inhibition in test [1] is 19.1%. The growth inhibition came out at 24.3% in test [2] and 43.7% in test [3].
Consider `COc1cccc(C(=O)NCCN2CCN(c3ccc(Cl)cc3)CC2)c1`, for which the general growth inhibition in test [1] was 36.8%. Further, the figures for the growth inhibition in test [2] and in test [3] were 32.9% and 58.6%, respectively.
`O=C(O)c1cccnc1C(=O)O` [Quinolinic acid] returned a general growth inhibition in test [1] of 59.1%. For the same compound, the figures for the growth inhibition in test [2] and in test [3] were 24.1% and 65.9%, respectively.
In test [1], `CSc1ccc2c(c1)N(CCC1CCCCN1C)c1ccccc1S2` (stereo not given) [Thioridazine hydrochloride] had a general growth inhibition of 16.2%. For the same compound, the results for the growth inhibition in test [2] and in test [3] were 30% and 52.8%, respectively.
Regarding `O=C(Nc1ccc2c(c1)CCN(Cc1ncn[nH]1)C2)c1ccccc1-c1ccc(C(F)(F)F)cc1`, the general growth inhibition in test [1] was 36.8%. Further, the growth inhibition stood at 34.9% in test [2] and 68.1% in test [3].
On to `CC(=O)N[C@@H](CS)C(=O)O` [N-Acetyl-L-Cysteine], for which the general growth inhibition in test [1] turned out to be 15.6%. Besides, the growth inhibition in test [2] was 1.67%; in test [3], 35.2%.
`Nc1nc2[nH]c(=O)cnc2c(=O)[nH]1` [Isoxanthopterin] displayed a general growth inhibition in test [1] of 30.4%. The values for the growth inhibition in test [2] and in test [3] were 28.9% and 48.9%, respectively.
For `CCn1ccnc1CC1COc2ccccc2O1` (stereo not given) [Imiloxan hydrochloride], the general growth inhibition in test [1] was 35.9%. Moreover, the figures for the growth inhibition in test [2] and in test [3] were 53.1% and 67%, respectively.
Taken in the same sequence, the figures for `CC(CCc1ccc(O)cc1)NCCc1ccc(O)c(O)c1` (stereo not given) [Dobutamine hydrochloride] were 34%, 53.8% and 53%.
In test [1], `N=c1nc(N2CCCCC2)cc(N)n1O` [Minoxidil] yielded a general growth inhibition of 36.1%. Moreover, the growth inhibition in test [2] turned out to be 42.4%; in test [3], 64.1%.
Taken in the same sequence, the figures for `Nc1ccc(N2C(=O)c3ccccc3C2=O)c(Cl)c1` [N-(4-Amino-2-chlorophenyl)phthalimide] were 38.2%, 33.4% and 45.5%.
For the compound `CSc1ccc(C(=O)c2[nH]c(=O)[nH]c2C)cc1` [Enoximone], in test [1], the general growth inhibition was 2.07%. Moreover, the growth inhibition was 4.29% in test [2] and 28.8% in test [3].
The corresponding values for `CN(C)CCCN1c2ccccc2Sc2ccc(C(F)(F)F)cc21` [Triflupromazine hydrochloride] are 44.6%, 32.8% and 56.4%.
